Measured values from PubChem BioAssay AID328 (DTP/NCI, 2004).
The list does not hold the whole screen: it is rich in T/C values a quarter to a half above the control, in often repeated tests (any T/C) and in doses without a T/C. Further doses and runs are listed elsewhere. T/C gives the treated animals as a percentage of the vehicle group. Some entries give survivors of the animals treated and no T/C: the source holds a T/C of zero for them, seemingly a mark for toxic or unscored doses. Some survivor counts are full or nearly so, which does not show that the dose was tolerated: the source hardly ever lists a survival T/C far under the control, and the zero likely stands for such cases as well. Counts of survivors are from the toxicity check (mostly the fifth day) where no day follows; animals may have died later. Schedule codes are those of the source, read here as Q, the interval in days (D) or hours (H), X, the number of doses. Some entries were tested several times; the values are given in rising order. For survival time, this PubChem deposit counts one and a half times the control or more as active, and values a quarter to a half above the control carry no call in these data; other NCI protocols may use other cut-offs. Some T/C values are followed by the survivors on the day toxicity was checked, most often the fifth; where none is given, no animal had died by that day.

System: BDF1 mice, P388 leukemia ip, median survival T/C
Assay: NCI In Vivo Anticancer Drug Screen. Data for tumor model P388 Leukemia (intraperitoneal) in B6D2F1 (BDF1) mice
Settings: T/C endpoint: median survival time, higher T/C = longer survival
Procedure, shortened: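 Mice carrying the transplantable tumour receive compound or vehicle. Survival is followed in each arm, and the treated measure is divided by the vehicle measure.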

[1] = dose: 25.0 mg/kg/injection, schedule: Q01DX009 (ip), vehicle: saline with Tween-80
[2] = dose: 50.0 mg/kg/injection, schedule: Q01DX009 (ip), vehicle: saline with Tween-80
[3] = dose: 100.0 mg/kg/injection, schedule: Q04DX003 (ip), vehicle: other

## CN(CCCl)Cc1ccccc1
dose: 50.0 mg/kg/injection, schedule: Q01DX009 (ip), vehicle: saline
  T/C: 145 % of control
dose: 100.0 mg/kg/injection, schedule: Q01DX009 (ip), vehicle: saline
  survivor count: 1 of 6
dose: 100.0 mg/kg/injection, schedule: Q04DX003 (ip), vehicle: saline
  T/C: 147 [5 of 6 alive], 155, 159, 270 % of control
dose: 150.0 mg/kg/injection, schedule: Q04DX003 (ip), vehicle: saline
  survivor count: 4 of 6
dose: 200.0 mg/kg/injection, schedule: Q04DX003 (ip), vehicle: saline
  survivor count: 2 of 6 and 4 of 6

## CC1CCC(NC(=O)N(CCCl)N=O)CC1 (stereo unspecified)
dose: 2.3 mg/kg/injection, schedule: Q01DX009 (ip), vehicle: Klucel (hydroxypropylcellulose) (HPC)
  T/C: 144 % of control
dose: 5.4 mg/kg/injection, schedule: Q01DX009 (ip), vehicle: Klucel (hydroxypropylcellulose) (HPC)
  T/C: 142 % of control
dose: 8.2 mg/kg/injection, schedule: Q01DX009 (ip), vehicle: Klucel (hydroxypropylcellulose) (HPC)
  T/C: 125 % of control
dose: 10.0 mg/kg/injection, schedule: Q04DX003 (ip), vehicle: saline with Tween-80
  T/C: 137 % of control
dose: 12.5 mg/kg/injection, schedule: Q01DX009 (ip), vehicle: Klucel (hydroxypropylcellulose) (HPC)
  T/C: 145 % of control
dose: 14.0 mg/kg/injection, schedule: Q04DX003 (ip), vehicle: saline with Tween-80, evaluated on day 5
  T/C: 197 and 216 % of control
dose: 14.0 mg/kg/injection, schedule: Q04DX003 (ip), vehicle: saline with Tween-80, evaluated on day 60
  T/C: 197 and 216 % of control
dose: 20.0 mg/kg/injection, schedule: Q01DX001 (ip), vehicle: alcohol
  survivor count: 10 of 10
dose: 20.0 mg/kg/injection, schedule: Q01DX001 (ip), vehicle: saline with Tween-80, evaluated on day 5
  T/C: 178, 179, 196 % of control
dose: 20.0 mg/kg/injection, schedule: Q01DX001 (ip), vehicle: saline with Tween-80, evaluated on day 60
  T/C: 178, 179, 196 % of control
dose: 21.0 mg/kg/injection, schedule: Q04DX003 (ip), vehicle: saline with Tween-80, evaluated on day 5
  T/C: 229 and 273 % of control
dose: 21.0 mg/kg/injection, schedule: Q04DX003 (ip), vehicle: saline with Tween-80, evaluated on day 60
  T/C: 229 and 273 % of control
dose: 24.0 mg/kg/injection, schedule: Q01DX001 (ip), vehicle: saline with Tween-80, evaluated on day 5
  T/C: 129, 274, 379, 400 % of control
dose: 24.0 mg/kg/injection, schedule: Q01DX001 (ip), vehicle: saline with Tween-80, evaluated on day 60
  T/C: 545 % of control
dose: 30.0 mg/kg/injection, schedule: Q01DX001 (ip), vehicle: saline with Tween-80, evaluated on day 5
  T/C: 216, 226, 314, 348, 425, 534 % of control
dose: 30.0 mg/kg/injection, schedule: Q01DX001 (ip), vehicle: saline with Tween-80, evaluated on day 60
  T/C: 216, 226, 348, 534 % of control
dose: 36.0 mg/kg/injection, schedule: Q01DX001 (ip), vehicle: saline with Tween-80, evaluated on day 5
  T/C: 250, 388, 442, 554 % of control
dose: 36.0 mg/kg/injection, schedule: Q01DX001 (ip), vehicle: saline with Tween-80, evaluated on day 60
  T/C: 545 % of control
dose: 40.0 mg/kg/injection, schedule: Q01DX001 (ip), vehicle: alcohol
  survivor count: 10 of 10
dose: 45.0 mg/kg/injection, schedule: Q01DX001 (ip), vehicle: saline with Tween-80, evaluated on day 5
  T/C: 254, 258, 535, 562 % of control
dose: 45.0 mg/kg/injection, schedule: Q01DX001 (ip), vehicle: saline with Tween-80, evaluated on day 60
  T/C: 254, 258, 535, 562 % of control
dose: 50.0 mg/kg/injection, schedule: Q01DX009 (ip), vehicle: Klucel (hydroxypropylcellulose) (HPC)
  survivor count: 3 of 6
dose: 54.0 mg/kg/injection, schedule: Q01DX001 (ip), vehicle: saline with Tween-80
  T/C: 136 % of control
dose: 100.0 mg/kg/injection, schedule: Q04DX003 (ip), vehicle: alcohol
  survivor count: 6 of 6

## O=C(CCCCN1CCc2[nH]c3ccc(F)cc3c2C1)c1ccc(F)cc1
dose: 400.0 mg/kg/injection, schedule: Q01DX001 (ip), vehicle: Klucel (hydroxypropylcellulose) (HPC)
  survivor count: 0 of 6

## CCNc1nc(Cl)nc(-c2cn(-c3ccccc3)c3ccccc23)n1
dose: 200.0 mg/kg/injection, schedule: Q01DX009 (ip), vehicle: Klucel (hydroxypropylcellulose) (HPC)
  survivor count: 6 of 6
dose: 400.0 mg/kg/injection, schedule: Q01DX009 (ip), vehicle: Klucel (hydroxypropylcellulose) (HPC)
  survivor count: 6 of 6

## O=C(NC1=NN(c2ccccc2)C(=O)C1)Nc1ccccc1
dose: 350.0 mg/kg/injection, schedule: Q01DX009 (ip), vehicle: saline with Tween-80
  T/C: 129 % of control

## C/C(=N/N=C(N)N)c1ccc(NC(=O)Nc2ccc(/C(C)=N/N=C(N)N)cc2)cc1
[1]
  T/C: 136 % of control
[2]
  T/C: 140 % of control

## CCCCCCCCCCCC(=O)CCC
[3]
  survivor count: 6 of 6

## Nc1nc2ccccc2[nH]1
dose: 200.0 mg/kg/injection, schedule: Q01DX009 (ip), vehicle: saline
  survivor count: 0 of 6

## COc1cccc2c1C(=O)c1c(O)c3c(c(O)c1C2=O)C[C@@](O)(/C(C)=N/NC(=O)c1ccc(Cl)c(Cl)c1)C[C@@H]3OC1CC(N)C(O)C(C)O1 (stereo partly specified)
dose: 0.5 mg/kg/injection, schedule: Q01DX009 (ip), vehicle: water
  T/C: 127 % of control
dose: 8.0 mg/kg/injection, schedule: Q01DX009 (ip), vehicle: water
  T/C: 130 % of control

## ClC1CC[N-]CC1.ClC1CC[N-]CC1.[Cl][Pt+2]([Cl])([Cl])[Cl]
dose: 3.12 mg/kg/injection, schedule: Q01DX009 (ip), vehicle: Klucel (hydroxypropylcellulose) (HPC)
  T/C: 132 % of control
dose: 6.25 mg/kg/injection, schedule: Q01DX009 (ip), vehicle: Klucel (hydroxypropylcellulose) (HPC)
  T/C: 147 % of control

## Cc1ccc(NC(=O)OCCSCCOC(=O)Nc2ccc(C)cc2)cc1
[3]
  survivor count: 6 of 6

## O=C(NC(=S)N1CC1)c1ccccc1
dose: 400.0 mg/kg/injection, schedule: Q01DX009 (ip), vehicle: saline with Tween-80
  survivor count: 6 of 6

## Cc1cc(=O)n(Cc2ccco2)c(=S)[nH]1
dose: 200.0 mg/kg/injection, schedule: Q01DX005 (ip), vehicle: saline with Tween-80
  survivor count: 6 of 6

## O=[N+]([O-])c1ccc2c(c1)Cc1cc(Br)ccc1-2
dose: 200.0 mg/kg/injection, schedule: Q04DX003 (ip), vehicle: Klucel (hydroxypropylcellulose) (HPC)
  survivor count: 3 of 6

## CC(=O)OCC(COC(C)=O)=C1N=C(c2ccccc2)OC1=O
dose: 200.0 mg/kg/injection, schedule: Q04DX003 (ip), vehicle: saline with Tween-80
  T/C: 127 % of control

## COC(=Nc1ccccc1)SSC(C)C
dose: 12.5 mg/kg/injection, schedule: Q01DX009 (ip), vehicle: saline with Tween-80
  T/C: 135 % of control
[1]
  T/C: 134 % of control
[2]
  T/C: 143 % of control
dose: 100.0 mg/kg/injection, schedule: Q01DX009 (ip), vehicle: saline with Tween-80
  T/C: 133 % of control

## CC(C)C(=O)OCC1OC(n2cnc3c(=S)nc[nH]c32)C(OC(=O)C(C)C)C1OC(=O)C(C)C (stereo unspecified)
dose: 200.0 mg/kg/injection, schedule: Q01DX009 (ip), vehicle: saline with Tween-80
  T/C: 127 % of control

## CC(=O)OC1C(=O)C(O)C(C)OC1O[C@@H]1C[C@@]2(C)[C@@H]3CC=C4[C@@H](C[C@H](O)C(=O)C4(C)C)[C@]3(C)C(=O)C[C@]2(C)[C@H]1[C@@](C)(O)C(=O)/C=C/C(C)(C)O (stereo partly specified)
dose: 0.44 mg/kg/injection, schedule: Q01DX009 (ip), vehicle: saline
  T/C: 135 % of control
dose: 0.66 mg/kg/injection, schedule: Q01DX009 (ip), vehicle: saline
  T/C: 130 % of control
dose: 1.0 mg/kg/injection, schedule: Q01DX009 (ip), vehicle: saline
  T/C: 125 % of control
dose: 1.0 mg/kg/injection, schedule: Q01DX010 (ip), vehicle: carboxymethylcellulose (CMC)
  survivor count: 6 of 6
dose: 1.5 mg/kg/injection, schedule: Q01DX009 (ip), vehicle: saline
  T/C: 135 % of control [5 of 6 alive]
dose: 2.0 mg/kg/injection, schedule: Q01DX010 (ip), vehicle: carboxymethylcellulose (CMC)
  survivor count: 2 of 6
dose: 4.0 mg/kg/injection, schedule: Q01DX009 (ip), vehicle: saline
  survivor count: 2 of 6
dose: 4.0 mg/kg/injection, schedule: Q01DX010 (ip), vehicle: carboxymethylcellulose (CMC)
  survivor count: 0 of 6
dose: 5.0 mg/kg/injection, schedule: Q01DX010 (ip), vehicle: saline
  survivor count: 0 of 6
dose: 10.0 mg/kg/injection, schedule: Q01DX010 (ip), vehicle: saline
  survivor count: 1 of 6
